{
  "sequences": {"note": "Protein sequences, listed by entry. Tags and fused reporters are not part of them. Lines headed by an entry give the natural chain unless they say otherwise; changes in a name come on top.", "UniProt P52800": "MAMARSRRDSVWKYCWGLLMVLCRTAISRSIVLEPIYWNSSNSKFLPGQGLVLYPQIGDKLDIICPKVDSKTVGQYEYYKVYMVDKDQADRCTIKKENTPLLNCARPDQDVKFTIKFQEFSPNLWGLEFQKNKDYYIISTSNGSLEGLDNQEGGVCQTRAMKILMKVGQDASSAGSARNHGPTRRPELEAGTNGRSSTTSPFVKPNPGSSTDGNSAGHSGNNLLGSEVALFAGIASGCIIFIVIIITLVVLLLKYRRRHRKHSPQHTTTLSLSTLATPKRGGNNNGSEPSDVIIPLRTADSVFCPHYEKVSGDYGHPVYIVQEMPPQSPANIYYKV"},
  "source": "patent US20100150834A1",
  "about": "“HIGH AFFINITY EPHB RECEPTOR BINDING COMPOUNDS AND METHODS OF USE THEREOF” (priority 2006, published 2010)",
  "target": "T1, murine EphB4-Alkaline Phosphatase (murine) (UniProt P54761)",
  "T1 sequence (looked up)": "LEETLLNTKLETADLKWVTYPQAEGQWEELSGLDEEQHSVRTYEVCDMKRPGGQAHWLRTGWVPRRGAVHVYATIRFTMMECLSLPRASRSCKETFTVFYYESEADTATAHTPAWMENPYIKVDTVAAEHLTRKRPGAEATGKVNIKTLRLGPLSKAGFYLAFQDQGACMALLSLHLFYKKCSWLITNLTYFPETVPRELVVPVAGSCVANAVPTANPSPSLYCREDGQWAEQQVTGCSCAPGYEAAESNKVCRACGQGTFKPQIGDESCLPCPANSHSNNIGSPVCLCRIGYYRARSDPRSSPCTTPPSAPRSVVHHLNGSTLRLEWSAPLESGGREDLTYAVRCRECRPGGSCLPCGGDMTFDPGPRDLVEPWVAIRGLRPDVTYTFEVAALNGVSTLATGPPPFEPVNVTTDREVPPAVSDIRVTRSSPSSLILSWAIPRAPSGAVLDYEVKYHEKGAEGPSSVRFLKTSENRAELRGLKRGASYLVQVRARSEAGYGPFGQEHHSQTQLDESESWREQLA",
  "assay": "ELISA binding curve: ephrin-B2 Fc immobilised, increasing volumes of murine EphB4 AP, OD405; one experiment",
  "note": "Results are given in words; binding and its absence hold for the method and conditions named. Some binding calls cover weakened binding; strength is not graded here.",
  "data": [
    {"substance": "ephrin-B2 Fc (Example 7) (from UniProt P52800 29-232) (Fc fusion)", "values": [
      {"measurement": "binding", "result": "binds"}
    ]}
  ]
}
